Source: the supplement of paper PMC10849652
The list shows a part of the results.

The chains behind the UniProt entries cited, without tags or fusion partners. Where a name states a change or a piece, a line headed by the entry shows the natural chain unless it says otherwise.
UniProt O14925: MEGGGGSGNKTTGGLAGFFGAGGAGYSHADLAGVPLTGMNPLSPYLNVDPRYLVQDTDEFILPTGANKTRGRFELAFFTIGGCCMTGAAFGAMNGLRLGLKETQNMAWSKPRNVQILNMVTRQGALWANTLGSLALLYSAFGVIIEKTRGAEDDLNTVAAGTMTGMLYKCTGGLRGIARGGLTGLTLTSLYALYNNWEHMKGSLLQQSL
UniProt Q5VWP2: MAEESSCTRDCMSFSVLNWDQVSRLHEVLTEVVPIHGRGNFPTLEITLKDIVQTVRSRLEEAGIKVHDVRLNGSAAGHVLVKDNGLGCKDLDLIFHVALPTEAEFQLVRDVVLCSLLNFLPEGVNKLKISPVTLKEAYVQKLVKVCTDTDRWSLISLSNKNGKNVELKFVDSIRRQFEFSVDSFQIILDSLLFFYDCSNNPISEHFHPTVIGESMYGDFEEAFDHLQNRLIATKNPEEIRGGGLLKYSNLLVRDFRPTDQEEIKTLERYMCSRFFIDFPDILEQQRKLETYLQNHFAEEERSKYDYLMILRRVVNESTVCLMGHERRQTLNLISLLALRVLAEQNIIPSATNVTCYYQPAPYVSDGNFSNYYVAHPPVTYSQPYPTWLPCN
UniProt O60343: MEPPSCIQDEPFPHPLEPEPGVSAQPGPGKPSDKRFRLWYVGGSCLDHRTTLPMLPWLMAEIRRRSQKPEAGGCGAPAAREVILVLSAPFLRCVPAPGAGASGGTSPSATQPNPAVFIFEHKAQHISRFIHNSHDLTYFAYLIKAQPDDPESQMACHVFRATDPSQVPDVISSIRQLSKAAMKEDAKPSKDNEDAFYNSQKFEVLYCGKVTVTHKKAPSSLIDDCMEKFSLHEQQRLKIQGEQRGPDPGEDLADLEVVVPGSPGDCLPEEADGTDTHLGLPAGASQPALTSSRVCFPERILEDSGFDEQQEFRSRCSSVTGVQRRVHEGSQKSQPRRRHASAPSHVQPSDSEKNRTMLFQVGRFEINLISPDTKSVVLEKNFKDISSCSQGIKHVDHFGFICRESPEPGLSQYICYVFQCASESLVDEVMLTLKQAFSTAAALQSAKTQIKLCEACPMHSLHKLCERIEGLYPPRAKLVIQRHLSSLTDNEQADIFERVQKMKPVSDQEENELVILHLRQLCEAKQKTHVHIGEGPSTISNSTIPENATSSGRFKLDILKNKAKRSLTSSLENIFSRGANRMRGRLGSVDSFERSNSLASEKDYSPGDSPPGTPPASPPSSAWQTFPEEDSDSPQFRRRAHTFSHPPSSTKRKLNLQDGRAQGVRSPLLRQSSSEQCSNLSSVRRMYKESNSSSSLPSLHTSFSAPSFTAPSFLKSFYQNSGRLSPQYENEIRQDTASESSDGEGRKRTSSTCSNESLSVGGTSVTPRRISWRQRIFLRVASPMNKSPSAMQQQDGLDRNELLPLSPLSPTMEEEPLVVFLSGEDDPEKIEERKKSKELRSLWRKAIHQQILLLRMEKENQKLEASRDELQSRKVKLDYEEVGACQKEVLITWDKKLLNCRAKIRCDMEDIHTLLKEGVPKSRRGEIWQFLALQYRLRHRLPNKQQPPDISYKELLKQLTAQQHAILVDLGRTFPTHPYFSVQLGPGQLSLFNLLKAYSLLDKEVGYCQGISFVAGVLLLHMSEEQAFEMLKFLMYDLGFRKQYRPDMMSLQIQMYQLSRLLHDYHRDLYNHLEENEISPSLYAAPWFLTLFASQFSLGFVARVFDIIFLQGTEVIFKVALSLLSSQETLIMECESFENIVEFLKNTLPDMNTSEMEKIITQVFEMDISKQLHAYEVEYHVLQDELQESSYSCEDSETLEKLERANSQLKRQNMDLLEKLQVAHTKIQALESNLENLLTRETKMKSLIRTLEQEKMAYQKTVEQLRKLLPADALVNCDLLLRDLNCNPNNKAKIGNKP
UniProt Q9NXG2: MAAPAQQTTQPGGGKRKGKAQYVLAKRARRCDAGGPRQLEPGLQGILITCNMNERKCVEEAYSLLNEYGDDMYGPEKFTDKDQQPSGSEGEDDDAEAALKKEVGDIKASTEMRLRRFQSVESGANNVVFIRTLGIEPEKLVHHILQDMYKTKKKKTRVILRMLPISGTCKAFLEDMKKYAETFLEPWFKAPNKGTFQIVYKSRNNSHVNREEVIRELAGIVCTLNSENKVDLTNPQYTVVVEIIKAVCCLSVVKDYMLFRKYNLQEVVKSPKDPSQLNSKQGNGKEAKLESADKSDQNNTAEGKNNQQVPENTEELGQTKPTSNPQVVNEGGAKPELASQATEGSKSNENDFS
UniProt Q96MV1: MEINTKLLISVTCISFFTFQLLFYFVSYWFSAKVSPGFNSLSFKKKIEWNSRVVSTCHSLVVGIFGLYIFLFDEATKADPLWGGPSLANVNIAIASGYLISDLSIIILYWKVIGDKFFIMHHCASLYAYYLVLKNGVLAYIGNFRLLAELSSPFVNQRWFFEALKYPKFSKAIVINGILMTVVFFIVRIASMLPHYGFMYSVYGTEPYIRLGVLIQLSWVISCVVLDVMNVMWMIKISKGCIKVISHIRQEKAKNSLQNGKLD
UniProt P52888, whole entry, looked up: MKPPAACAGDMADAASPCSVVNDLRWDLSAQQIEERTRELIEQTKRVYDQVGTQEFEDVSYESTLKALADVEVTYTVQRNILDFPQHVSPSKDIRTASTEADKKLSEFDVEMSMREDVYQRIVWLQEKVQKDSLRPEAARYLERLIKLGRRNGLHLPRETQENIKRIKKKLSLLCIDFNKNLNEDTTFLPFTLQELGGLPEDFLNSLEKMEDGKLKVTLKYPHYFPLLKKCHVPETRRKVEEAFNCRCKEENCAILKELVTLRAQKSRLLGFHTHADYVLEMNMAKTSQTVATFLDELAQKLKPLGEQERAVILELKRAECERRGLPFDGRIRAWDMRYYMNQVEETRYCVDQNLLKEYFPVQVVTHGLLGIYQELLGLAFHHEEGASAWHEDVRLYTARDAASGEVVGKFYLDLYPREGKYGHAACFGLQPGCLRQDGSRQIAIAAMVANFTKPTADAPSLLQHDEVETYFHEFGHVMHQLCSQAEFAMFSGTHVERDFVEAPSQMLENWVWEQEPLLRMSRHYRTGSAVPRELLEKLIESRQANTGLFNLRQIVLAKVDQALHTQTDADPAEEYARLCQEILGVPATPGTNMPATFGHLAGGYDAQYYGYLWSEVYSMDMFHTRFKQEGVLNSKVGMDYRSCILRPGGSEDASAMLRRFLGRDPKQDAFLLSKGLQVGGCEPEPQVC
UniProt P01137, whole entry, looked up: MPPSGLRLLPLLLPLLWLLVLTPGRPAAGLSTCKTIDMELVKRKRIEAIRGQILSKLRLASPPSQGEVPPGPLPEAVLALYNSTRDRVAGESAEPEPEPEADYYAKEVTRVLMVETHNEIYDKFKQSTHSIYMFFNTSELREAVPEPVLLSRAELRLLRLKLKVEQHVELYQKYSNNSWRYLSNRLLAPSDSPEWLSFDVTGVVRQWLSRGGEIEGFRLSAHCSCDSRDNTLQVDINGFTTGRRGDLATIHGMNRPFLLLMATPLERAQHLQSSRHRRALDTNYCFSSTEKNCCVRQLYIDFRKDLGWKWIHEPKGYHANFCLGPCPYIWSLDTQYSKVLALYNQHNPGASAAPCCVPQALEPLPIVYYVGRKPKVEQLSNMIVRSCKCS
UniProt O75347: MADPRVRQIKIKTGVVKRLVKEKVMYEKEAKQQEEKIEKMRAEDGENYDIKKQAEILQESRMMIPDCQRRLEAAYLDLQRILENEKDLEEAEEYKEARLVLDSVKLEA
UniProt Q14188: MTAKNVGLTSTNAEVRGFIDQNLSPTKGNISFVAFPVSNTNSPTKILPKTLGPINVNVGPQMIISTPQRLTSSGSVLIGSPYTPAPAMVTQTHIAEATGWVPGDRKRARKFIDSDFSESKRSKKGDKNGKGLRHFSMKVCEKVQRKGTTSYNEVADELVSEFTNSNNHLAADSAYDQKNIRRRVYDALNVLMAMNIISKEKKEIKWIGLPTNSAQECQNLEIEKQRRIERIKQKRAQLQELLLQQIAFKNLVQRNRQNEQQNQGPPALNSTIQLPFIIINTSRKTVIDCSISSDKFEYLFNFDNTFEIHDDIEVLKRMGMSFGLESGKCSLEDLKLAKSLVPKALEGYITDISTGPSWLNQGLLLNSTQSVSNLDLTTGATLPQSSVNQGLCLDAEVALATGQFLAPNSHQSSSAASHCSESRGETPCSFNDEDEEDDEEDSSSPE
UniProt Q92734, whole entry, looked up: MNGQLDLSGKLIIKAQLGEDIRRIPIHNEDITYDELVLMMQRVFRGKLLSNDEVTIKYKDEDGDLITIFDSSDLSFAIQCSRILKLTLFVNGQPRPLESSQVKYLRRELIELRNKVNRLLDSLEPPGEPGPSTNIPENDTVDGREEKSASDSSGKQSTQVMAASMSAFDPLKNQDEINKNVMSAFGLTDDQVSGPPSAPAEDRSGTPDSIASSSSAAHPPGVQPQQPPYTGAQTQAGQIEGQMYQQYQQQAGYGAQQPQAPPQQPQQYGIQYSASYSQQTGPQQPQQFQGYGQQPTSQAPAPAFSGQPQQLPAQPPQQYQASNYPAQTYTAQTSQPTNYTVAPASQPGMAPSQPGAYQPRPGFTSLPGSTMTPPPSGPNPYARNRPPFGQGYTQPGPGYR
UniProt Q9UPU7: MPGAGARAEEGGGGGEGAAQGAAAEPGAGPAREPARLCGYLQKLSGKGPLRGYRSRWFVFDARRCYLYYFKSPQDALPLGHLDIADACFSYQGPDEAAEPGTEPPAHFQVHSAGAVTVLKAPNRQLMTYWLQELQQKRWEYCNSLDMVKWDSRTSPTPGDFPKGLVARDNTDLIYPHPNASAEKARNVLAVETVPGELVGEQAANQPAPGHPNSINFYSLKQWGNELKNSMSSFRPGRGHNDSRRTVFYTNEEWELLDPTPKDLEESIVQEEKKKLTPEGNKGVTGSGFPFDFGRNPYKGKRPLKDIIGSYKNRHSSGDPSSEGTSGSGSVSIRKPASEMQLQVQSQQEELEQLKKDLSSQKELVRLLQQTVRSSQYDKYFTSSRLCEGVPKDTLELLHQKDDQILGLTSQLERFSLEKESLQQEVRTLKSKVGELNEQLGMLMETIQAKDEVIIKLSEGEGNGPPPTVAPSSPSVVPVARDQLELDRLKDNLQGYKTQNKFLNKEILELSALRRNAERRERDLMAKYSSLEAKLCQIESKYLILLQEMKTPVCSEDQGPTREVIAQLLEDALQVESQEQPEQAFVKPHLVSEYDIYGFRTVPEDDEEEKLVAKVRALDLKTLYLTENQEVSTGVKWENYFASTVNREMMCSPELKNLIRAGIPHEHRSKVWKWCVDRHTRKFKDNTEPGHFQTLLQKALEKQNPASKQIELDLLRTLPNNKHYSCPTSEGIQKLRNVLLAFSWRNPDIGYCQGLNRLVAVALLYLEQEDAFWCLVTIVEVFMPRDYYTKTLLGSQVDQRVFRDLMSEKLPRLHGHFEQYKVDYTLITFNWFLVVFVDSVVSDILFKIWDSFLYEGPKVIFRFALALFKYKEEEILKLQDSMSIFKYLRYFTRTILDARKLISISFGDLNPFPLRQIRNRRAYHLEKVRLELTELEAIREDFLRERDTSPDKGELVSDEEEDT
UniProt Q8IYQ7: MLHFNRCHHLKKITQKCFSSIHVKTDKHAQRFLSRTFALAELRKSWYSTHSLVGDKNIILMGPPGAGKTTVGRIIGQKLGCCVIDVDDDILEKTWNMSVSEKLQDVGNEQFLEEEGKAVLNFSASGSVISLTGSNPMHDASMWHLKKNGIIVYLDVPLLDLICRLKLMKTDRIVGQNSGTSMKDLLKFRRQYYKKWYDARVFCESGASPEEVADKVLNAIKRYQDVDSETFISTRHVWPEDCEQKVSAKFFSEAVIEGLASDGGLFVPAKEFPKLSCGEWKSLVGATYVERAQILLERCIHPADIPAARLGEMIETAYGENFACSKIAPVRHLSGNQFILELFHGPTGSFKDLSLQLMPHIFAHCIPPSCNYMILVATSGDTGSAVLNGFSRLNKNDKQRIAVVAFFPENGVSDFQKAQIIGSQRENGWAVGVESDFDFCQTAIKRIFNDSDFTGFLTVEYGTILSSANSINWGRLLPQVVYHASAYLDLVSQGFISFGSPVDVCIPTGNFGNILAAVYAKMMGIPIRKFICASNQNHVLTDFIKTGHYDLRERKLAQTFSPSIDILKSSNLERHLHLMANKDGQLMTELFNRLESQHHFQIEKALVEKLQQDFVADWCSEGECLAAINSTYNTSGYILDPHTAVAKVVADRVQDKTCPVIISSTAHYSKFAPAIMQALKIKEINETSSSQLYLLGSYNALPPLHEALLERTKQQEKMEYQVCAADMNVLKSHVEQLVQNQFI
UniProt P01033: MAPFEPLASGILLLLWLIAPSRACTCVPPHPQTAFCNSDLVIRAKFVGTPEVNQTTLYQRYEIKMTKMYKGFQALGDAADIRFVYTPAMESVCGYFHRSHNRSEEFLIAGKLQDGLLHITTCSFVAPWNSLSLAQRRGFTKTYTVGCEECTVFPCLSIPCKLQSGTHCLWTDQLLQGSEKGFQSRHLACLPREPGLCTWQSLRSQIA

Tests used:
Assay in all cases: log2 fold change, soluble protein after heating vs DMSO (PISA); higher = thermal stabilisation; K562 cells, 10 uM, 30 min; active = over 0.2 and 3.5 SD of the protein, either way, in both replicates (recomputed)
[1] = compound: NC(=O)Nc1cc(-c2cccc(F)c2)sc1C(=O)N[C@H]1CCCNC1
Method in brief: (§1)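 Quantification of soluble protein used TMTpro 16plex LC-MS/MS, with channel sums equalised. Samples were the supernatant after 21,000xg for 90 min of pooled aliquots from K562 cells (2×10^6 cells/mL) treated with 10 μM compound for 30 min, heated for 3 min over 48°C-58°C, and extracted in PBS with 0.5% NP-40 at 4°C. Values, from duplicates, describe thermal stability against control samples on a log2 fold-change scale.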

[2] = compound: NC(=O)c1cnc(N[C@@H]2CCCC[C@@H]2N)nc1Nc1cccc(-n2nccn2)c1
Method in brief: as §1

[3] = compound: NC1(c2ccc(-c3nc4ccn5c(=O)[nH]nc5c4cc3-c3ccccc3)cc2)CCC1
Method in brief: as §1

[4] = compound: NCC(=O)Nc1ccc(-n2nc(C(F)(F)F)cc2-c2ccc3c(ccc4ccccc43)c2)cc1
Method in brief: as §1

entinostat = compound: Nc1ccccc1NC(=O)c1ccc(CNC(=O)OCc2cccnc2)cc1 [entinostat]
Method in brief: as §1

vorinostat = compound: O=C(CCCCCCC(=O)Nc1ccccc1)NO [vorinostat]
Method in brief: as §1

silmitasertib = compound: O=C(O)c1ccc2c(c1)nc(Nc1cccc(Cl)c1)c1ccncc12 [silmitasertib]
Method in brief: as §1

citarinostat = compound: O=C(CCCCCCNC(=O)c1cnc(N(c2ccccc2)c2ccccc2Cl)nc1)NO [citarinostat]
Method in brief: as §1

[5] = compound: O=C1NC(=O)C(c2cnc3ccccn23)=C1c1cn2c3c(cc(F)cc13)CN(C(=O)N1CCCCC1)CC2
Method in brief: as §1

[6] = compound: c1cc(OCCN2CCCCC2)cc(-c2n[nH]c3ccc(-c4nnc[nH]4)cc23)c1
Method in brief: as §1

entospletinib = compound: c1cn2cc(-c3ccc4cn[nH]c4c3)nc(Nc3ccc(N4CCOCC4)cc3)c2n1 [entospletinib]
Method in brief: as §1

Target | log2 fold change [1] | log2 fold change [2] | log2 fold change [3] | log2 fold change [4] | log2 fold change (entinostat) | log2 fold change (vorinostat) | log2 fold change (silmitasertib) | log2 fold change (citarinostat) | log2 fold change [5] | log2 fold change [6] | log2 fold change (entospletinib)
TGDS (UniProt O95455) | inactive: -0.085 | inactive: -0.063 | inactive: -0.01 | inactive: -0.046 | inactive: -0.158 | inactive: 0.063 | inactive: -0.01 | – | – | – | –
TIMM23 (UniProt O14925) | inactive: 0.006 | inactive: 0.027 | inactive: -0.033 | inactive: 0.061 | inactive: -0.037 | inactive: 0.002 | inactive: 0.031 | inactive: 0.077 | inactive: -0.027 | inactive: -0.059 | inactive: 0.038
TGFBR3 (UniProt Q03167) | inactive: 0.001 | inactive: -0.023 | inactive: -0.011 | inactive: -0.038 | inactive: -0.067 | inactive: 0.049 | inactive: 0.058 | inactive: 0.057 | inactive: -0.062 | inactive: -0.016 | inactive: 0.003
TICAM2 isoform 2 (UniProt Q86XR7) | inactive: 0.008 | inactive: -0.001 | inactive: -0.017 | inactive: 0.027 | inactive: -0.001 | inactive: 0.019 | inactive: -0.003 | inactive: 0.059 | inactive: 0.144 | inactive: -0.025 | inactive: -0.04
TCOF1 isoform 6 (UniProt Q13428) | inactive: 0.281 | – | inactive: -0.07 | inactive: 0.077 | inactive: 0.23 | – | inactive: 0.028 | inactive: 0.18 | – | inactive: -0.042 | –
TENT5C (UniProt Q5VWP2) | inactive: -0.095 | – | inactive: 0.006 | inactive: -0.32 | inactive: 0.035 | inactive: -0.104 | inactive: -0.038 | inactive: 0.144 | – | inactive: -0.133 | –
TBC1D4 (UniProt O60343) | inactive: -0.032 | inactive: -0.068 | inactive: -0.089 | inactive: 0.013 | inactive: 0.026 | inactive: 0.031 | inactive: 0.057 | inactive: -0.004 | inactive: 0.081 | inactive: -0.011 | inactive: -0.007
THBS4 (UniProt P35443) | inactive: -0.013 | inactive: 0.022 | inactive: 0.007 | inactive: -0.062 | inactive: -0.038 | inactive: 0.015 | inactive: 0.216 | inactive: -0.126 | inactive: 0.06 | inactive: 0.207 | inactive: 0.135
TBC1D22B (UniProt Q9NU19) | inactive: 0.041 | inactive: 0.001 | inactive: -0.091 | inactive: -0.178 | inactive: -0.015 | inactive: 0.013 | inactive: -0.045 | inactive: 0.182 | inactive: 0.11 | inactive: 0.091 | inactive: -0.041
TEX2 isoform 2 (UniProt Q8IWB9) | inactive: -0.091 | inactive: 0.155 | inactive: 0.129 | inactive: 0.136 | inactive: -0.061 | inactive: 0.035 | inactive: 0.431 | – | inactive: 0.012 | – | –
THUMPD1 (UniProt Q9NXG2) | inactive: 0.026 | inactive: -0.024 | inactive: -0.016 | inactive: -0.021 | inactive: -0.01 | inactive: -0.002 | inactive: -0.03 | inactive: 0.054 | inactive: -0.03 | inactive: -0.013 | inactive: -0.013
TLCD4 (UniProt Q96MV1) | inactive: 0.011 | inactive: -0.006 | inactive: -0.089 | inactive: 0.02 | inactive: 0.021 | inactive: -0.07 | inactive: 0.008 | inactive: 0.102 | inactive: 0.139 | inactive: -0.124 | inactive: -0.019
TBC1D22A (UniProt Q8WUA7) | inactive: -0.025 | inactive: -0.005 | inactive: -0.079 | inactive: -0.001 | inactive: 0.057 | inactive: 0.196 | inactive: -0.004 | inactive: -0.034 | inactive: -0.004 | inactive: -0.027 | inactive: -0.001
TKT, A0A0B4J1R6 | inactive: -0.211 | inactive: -0.31 | inactive: -0.033 | inactive: -0.444 | inactive: -0.071 | – | inactive: 0.233 | inactive: -0.072 | inactive: 0.118 | inactive: -0.461 | inactive: 0.033
THOP1 (UniProt P52888) | inactive: 0.025 | inactive: 0.001 | inactive: 0.033 | inactive: 0.008 | inactive: -0.034 | inactive: -0.005 | inactive: -0.037 | inactive: 0.06 | inactive: -0.014 | inactive: 0.014 | inactive: -0.05
TFPI (UniProt P10646) | inactive: -0.021 | – | inactive: 0.13 | inactive: -0.003 | inactive: -0.047 | inactive: -0.158 | inactive: 0.127 | – | inactive: -0.009 | – | –
TGFB1 (UniProt P01137) | inactive: -0.001 | inactive: -0.007 | inactive: -0.033 | inactive: -0.022 | inactive: -0.024 | inactive: -0.06 | inactive: 0.016 | inactive: 0.029 | inactive: 0.003 | inactive: -0.06 | inactive: -0.013
TBCA (UniProt O75347) | inactive: -0.015 | inactive: 0.039 | inactive: 0.049 | inactive: 0.02 | inactive: -0.041 | inactive: -0.076 | inactive: -0.038 | inactive: -0.033 | inactive: -0.057 | inactive: 0.046 | inactive: 0
TGM2 (UniProt P21980) | inactive: -0.004 | inactive: -0.006 | inactive: -0.084 | inactive: 0.024 | inactive: -0.003 | inactive: 0.037 | inactive: -0.022 | inactive: 0.049 | inactive: -0.04 | inactive: -0.013 | inactive: -0.049
TFDP2 (UniProt Q14188) | inactive: -0.038 | – | inactive: -0.159 | – | inactive: 0.129 | – | inactive: -0.035 | inactive: 0.077 | inactive: -0.119 | inactive: -0.091 | inactive: -0.183
TEX264 (UniProt Q9Y6I9) | active: 0.548 | inactive: -0.001 | inactive: 0.215 | inactive: -0.033 | inactive: 0.006 | inactive: -0.012 | inactive: 0.02 | inactive: -0.054 | inactive: -0.093 | inactive: 0.515 | active: 0.601
TLCD3A (UniProt Q8TBR7) | inactive: 0.008 | inactive: -0.044 | – | inactive: 0.003 | inactive: -0.023 | inactive: -0.051 | – | inactive: 0.014 | – | inactive: 0 | inactive: -0.053
TBC1D17 (UniProt Q9HA65) | inactive: -0.032 | inactive: -0.075 | inactive: -0.051 | inactive: -0.147 | inactive: 0.004 | inactive: 0.054 | inactive: 0.053 | inactive: 0.131 | – | inactive: -0.09 | inactive: -0.009
TCF12 isoform 3 (UniProt Q99081) | inactive: -0.032 | inactive: 0.102 | inactive: -0.103 | inactive: -0.121 | inactive: -0.001 | inactive: 0.144 | inactive: -0.002 | inactive: 0.064 | inactive: -0.135 | inactive: -0.096 | inactive: 0.039
TFG (UniProt Q92734) | inactive: -0.022 | inactive: 0.024 | inactive: -0.011 | inactive: 0.007 | inactive: -0.009 | inactive: -0.024 | inactive: 0 | inactive: 0.035 | inactive: -0.026 | inactive: -0.067 | inactive: -0.054
TBCC (UniProt Q15814) | inactive: 0.033 | inactive: -0.075 | inactive: -0.072 | inactive: -0.023 | inactive: 0.002 | inactive: 0.01 | inactive: 0.003 | inactive: 0.048 | inactive: -0.045 | inactive: 0.009 | inactive: 0
TBC1D2B (UniProt Q9UPU7) | inactive: -0.002 | – | inactive: 0.038 | – | inactive: -0.072 | – | inactive: -0.041 | inactive: 0.067 | – | inactive: -0.063 | inactive: -0.008
THNSL1 (UniProt Q8IYQ7) | inactive: -0.024 | inactive: -0.026 | inactive: -0.094 | inactive: 0.009 | inactive: -0.016 | inactive: 0.033 | inactive: -0.016 | inactive: -0.045 | inactive: -0.025 | inactive: -0.056 | inactive: 0.09
TIMP1 (UniProt P01033) | inactive: -0.104 | inactive: 0.009 | inactive: 0.089 | inactive: 0.031 | inactive: -0.082 | inactive: -0.073 | inactive: 0.086 | inactive: 0.018 | inactive: -0.053 | inactive: -0.099 | inactive: 0.036
TK1 (UniProt K7ERV3) | inactive: -0.127 | inactive: -0.054 | inactive: -0.005 | inactive: 0.022 | inactive: -0.071 | inactive: -0.003 | inactive: -0.039 | – | inactive: -0.116 | – | –

Reformatted in CSV form: entries from further up
Target,log2 fold change [1],log2 fold change [2],log2 fold change [3],log2 fold change [4],log2 fold change (entinostat),log2 fold change (vorinostat),log2 fold change (silmitasertib),log2 fold change (citarinostat),log2 fold change [5],log2 fold change [6],log2 fold change (entospletinib)
TFDP2 (UniProt Q14188),inactive: -0.038,–,inactive: -0.159,–,inactive: 0.129,–,inactive: -0.035,inactive: 0.077,inactive: -0.119,inactive: -0.091,inactive: -0.183
TEX264 (UniProt Q9Y6I9),active: 0.548,inactive: -0.001,inactive: 0.215,inactive: -0.033,inactive: 0.006,inactive: -0.012,inactive: 0.02,inactive: -0.054,inactive: -0.093,inactive: 0.515,active: 0.601
